Data reported in PubChem BioAssay AID2685 (National Center for Advancing Translational Sciences (NCATS), 2010).
The other results are listed elsewhere or left out. Further columns of the screen follow, without active or inactive calls. The list favours compounds with an active or inconclusive main result. Potencies come from curve fits of mixed quality, noted in brackets.

Experiment: qHTS Assay for Lipid Storage Modulators in Drosophila S3 Cells;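 for cell number change: cells counted by Cell Tracker Red CMTPX staining in the red channel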
Details: BODIPY lipid droplet fluorescence, 18-24 h; for cell number change: measured here: cell count max response, cells fed with added oleic acid
Outline: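 Drosophila S3 cells got compounds at several concentrations plus oleic acid (400 uM solution). Laser-scanning cytometry with 488 nm excitation read lipid droplets at 500-530 nm and cells at 575-640 nm. Percent activity was relative to 20 uM Triacsin C.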

[1] = measured here: cell number channel AC50, cells fed with added oleic acid
[2] = measured here: lipid fluorescence (Fed channel) AC50, cells fed with added oleic acid

Structure (SMILES)	cell number change [%]	AC50 [1]	AC50 [2]
O=c1c2ccccc2nnn1Cc1nnc(-c2ccccc2Br)o1	9.7	0.058 µM [rising, full curve, poor fit]	0.0651 µM [rising, full curve, poor fit]
CCCCN(CCCC)C(=O)CSc1nnc(-c2cc(OC)c(OC)c(OC)c2)o1	-0.835		6.51 µM [rising, single point]
Cc1ccc(-c2noc(C3CCCN(C(=O)c4cccc(F)c4)C3)n2)cc1 (stereo not drawn)	-32	29.1 µM [falling, single point]	29.1 µM [falling, single point]
CCN1CCN(Cc2c(O)ccc3c(C)cc(=O)oc23)CC1	-20.8	0.082 µM [falling, full curve, poor fit]	
CN1CCN(S(=O)(=O)c2cccc(C(=O)NCCOc3ccccc3)c2)CC1	50	16.4 µM [rising, single point]	
O=c1cc(Cc2ccccc2)[nH]c(=S)[nH]1	-25.3		23.1 µM [falling, partial curve, poor fit]
O=C(Nc1nnc(COc2ccc(Cl)cc2)s1)C1CCCO1 (stereo not drawn)		1.84 µM [rising, partial curve, poor fit]	
C=CCn1c(=NC(=O)c2ccco2)sc2cc(C(=O)OC)ccc21	2.68		0.411 µM [rising, full curve, poor fit]
Cc1csc(SCC(=O)N(C)CC(=O)Nc2ccc(F)cc2)n1	20.9		
CCN(c1ccc(C(=O)CSc2nnc(C3CC3)n2C2CC2)cc1)S(C)(=O)=O	-12.7		
O=S(=O)(c1ccc(OCC2CO2)cc1)c1ccc(OCC2CO2)cc1 (stereo not drawn)	-32.7	8.2 µM [falling, partial curve]	10.3 µM [falling, partial curve]
CC(=O)Nc1ccc(NC(=O)c2ccccc2-n2cnnn2)cc1	0.5		
O=C(Cc1ccccc1F)Nc1nc(-c2cccnc2)cs1	7.08		
CN1CCN(CCCNC(=O)c2ccc3c(c2)N(Cc2ccc(F)cc2)CCS3)CC1	31.2	0.082 µM [rising, full curve, poor fit]	
Nc1nc(Nc2ccccc2)nc2ccccc12	3.62		2.59 µM [rising, partial curve]
CCOC(=O)c1c(NC(=O)c2cccc([N+](=O)[O-])c2C(=O)O)sc2c1CCCC2	10.6		5.8 µM [rising, single point]
Cc1ccc([C@@H]2[C@@H]3C(=O)N(C)C(=O)[C@@H]3[C@]3(Cc4ccccc4)C(=O)N(Cc4ccccc4)CC(=O)N23)o1	31.7	0.164 µM [rising, full curve, poor fit]	
C#CCn1cc(/C=C2\NC(=O)NC2=O)c2ccccc21	12.5	0.103 µM [rising, full curve, poor fit]	0.58 µM [rising, single point]

Structure (SMILES)	cell number change [%]	AC50 [1]	AC50 [2]
COC(=O)c1cccc(NC(=O)CSc2nc(C)cc(=O)[nH]2)c1	-18.4		10.3 µM [rising, partial curve, poor fit]
CCCC(C(=O)N(C)CC(=O)Nc1ccc(N2CCOCC2)cc1)c1ccccc1 (stereo not drawn)	4.41		0.651 µM [rising, full curve]
O=C(NCc1ccco1)c1ccc(Cn2c(=O)c3sccc3n(Cc3cccc(F)c3)c2=O)cc1			0.00517 µM [rising, full curve, poor fit]
CC(C)CC(c1nnnn1Cc1ccco1)N1CCN(C2CCCC2)CC1 (stereo not drawn)	-10.9		0.146 µM [falling, full curve, poor fit]
CC(C)CCN(C(=O)c1csnn1)C(C(=O)NC1CCCCC1)c1ccc(F)cc1 (stereo not drawn)	1.28		
CN(C(=O)CN1C(=O)NC2(CCc3ccccc32)C1=O)C1CCS(=O)(=O)C1 (stereo not drawn)	18.5		32.6 µM [rising, single point]
CCC(=O)NNC(=O)CCC(=O)Nc1cccc(Cl)c1C	-31	0.116 µM [falling, full curve]	23.1 µM [falling, single point]
Cn1c(=O)[nH]c(=O)c2c1nc(N1CCCC1)n2CCO	5.82		23.1 µM [falling, single point]
O=C(N/N=C1\CCCc2oc(C(=O)O)cc21)c1ccccc1	2.99		0.411 µM [rising, partial curve, poor fit]
O=C(O)c1cc(-c2ccc3c(c2)OCO3)nc2ccccc12	1.44	0.411 µM [rising, full curve]	
O=c1c2ccccc2nc(SCc2nnc(-c3ccccc3)o2)n1-c1ccccc1	-2.38		
O=C1C([N+](=O)[O-])=C(O)c2cccc3cccc1c23	-70.9	20.6 µM [falling, partial curve]	14.6 µM [falling, partial curve]
CCOC(=O)c1cc2c(ccn2C)n1CC(=O)N(Cc1ccccc1)c1ccccc1	-43.9	7.31 µM [falling, partial curve]	5.8 µM [falling, partial curve]
Cc1ccc(Nc2c(-c3ccc(N4CCOCC4)cc3)nc3cnccn23)cc1		0.92 µM [rising, full curve, poor fit]	0.82 µM [rising, partial curve, poor fit]
COc1ccc2c(c1)C(=O)[C@@H](OC(=O)NCc1ccc3c(c1)OCO3)[C@H](c1ccc(OC)c(Br)c1)O2	9.9		0.651 µM [rising, full curve]
N/C(=N\OC(=O)/C=C/c1ccccc1Cl)c1cccnc1	15.5	6.51 µM [rising, single point]	
Cc1cccnc1NC(=O)Nc1cccs1	54.5	20.6 µM [rising, partial curve, poor fit]	6.51 µM [rising, single point]
O=C(CN1CCOCC1)Nc1ccccc1NC(=O)C1CCN(c2ncccn2)CC1	30.3	20.6 µM [rising, single point]	0.731 µM [falling, full curve, poor fit]

Full records from above:
`CN(C(=O)CN1C(=O)NC2(CCc3ccccc32)C1=O)C1CCS(=O)(=O)C1` (stereo not drawn) reads cell number change [%]: 18.5; AC50 [2]: 32.6 µM [rising, single point]
`COC(=O)c1cccc(NC(=O)CSc2nc(C)cc(=O)[nH]2)c1` reads cell number change [%]: -18.4; AC50 [2]: 10.3 µM [rising, partial curve, poor fit]
